In patent publication US20250262228A1, “TREATMENT OF SPASTICITY AND PAIN IN RENALLY-IMPAIRED PATIENTS” (Jazz Pharmaceuticals Research UK Limited., priority 2022, published 2025):
Like-named read-outs stand apart in the source and are kept apart here. Some of these results come from one statement about several compounds together.

Details: severe renal impairment vs normal, oromucosal spray, 4 sprays
Source text: Rationale: To date, no studies of administering the disclosed oromucosal spray in patients with varying degrees of renal impairment have been conducted. The present trial investigated the effects of the oromucosal spray in subjects with severe renal impairment. The principal aim of this trial was to assess the pharmacokinetic (PK) parameters following oromucosal administration in patients with severe renal impairment and individually matched healthy participants (i.e., otherwise identical patients with normal renal function).
Primary Objectives: Evaluated and compared the PK parameters of the oromucosal spray in participants with severe renal impairment or End-Stage Renal Disease (ESRD) to the PK profile in matched participants with normal renal function.
Primary Endpoints: The PK parameters, derived from the plasma concentration-time (Cmax) and area under the concentration-time curve calculated to the last concentration at time t (AUC0-t), or 48 hours (AUC0-48), for THC, CBD, and metabolites of THC and CBD (e.g., 11-OH-THC and 7-COOH-CBD).
The 4 sprays administered a total of 10.8 mg THC and 10 mg CBD. The duration of the trial was approximately 45 days, which included a screening period (up to 4 weeks), a treatment period (48 hours) and a safety follow-up period (2 weeks). Screening was performed within 28 to 2 days before dosing, and the assessments included measurement of serum creatinine to assess the eGFR as determined by the modification of diet in renal disease formula (MDRD) to verify initial participant eligibility for trial participation. Participants entered the screening period (Day −28 to −1). From Day −1, screened participants who continued to meet eligibility criteria were admitted to the clinical research facility and placed under observation continually from dosing until 48 hours postdose. […] On Day 1, participants received 4 sprays of the oromucosal spray.
Formulation Mode of Administration, Dose, and Regimen: The oromucosal spray was formulated as a mixture of THC and CBD extracts derived from Cannabis sativa L. The formulation contains THC and CBD as the most abundant cannabinoid constituents and also contains minor constituents including related cannabinoids and non-cannabinoid plant components, such as terpenes, sterols, and triglycerides. The spray contains 27 mg/mL of THC and 25 mg/mL of CBD dissolved in the excipients (e.g., ethanol and propylene glycol). Each spray delivers 100 μL containing 2.7 mg of THC and 2.5 mg of CBD.
Procedures: PK samplings were taken as close as to the nominal time point. Participants fasted overnight for at least 10 hours prior to the administration and for at least 4 hours thereafter. Standardized meals and beverages were provided at approximately 4 hours and 9 hours after dosing. With the exception of the water administered at the time of dosing, water was not permitted from 1 hour before until 1 hour after dosing. […] Cannabis or use of anticonvulsants, antidepressants, antipsychotic and anxiolytic medications were not allowed throughout the trial. Alcohol, nicotine products, and consuming food or beverages containing methylxanthines (caffeinated food or beverages) were prohibited for 24 hours prior to each visit and throughout the inpatient period.

| Structure (SMILES) | increase in AUClast in severe renal impairment versus normal renal function (text) | increase in AUC in the renally impaired group compared to the normal group | increase in AUClast in severe renal impairment versus normal renal function (text) (listed as 7-COOH CBD) |
| --- | --- | --- | --- |
| C=C(C)[C@@H]1CCC(C)=C[C@H]1c1c(O)cc(CCCCC)cc1O [CBD, Cannabidiol, reference compound] | up to 1.95 fold |  |  |
| CCCCCc1cc(O)c2c(c1)OC(C)(C)[C@@H]1CCC(C(=O)O)=C[C@@H]21 [11-COOH-THC] | up to 1.95 fold | less than 2 fold |  |
| C=C(C)[C@@H]1CCC(C(=O)O)=C[C@H]1c1c(O)cc(CCCCC)cc1O [7-COOH-CBD] |  | less than 2 fold | up to 1.95 fold |
| CCCCCc1cc(O)c2c(c1)OC(C)(C)[C@@H]1CCC(C)=C[C@@H]21 [THC, Δ-9-tetrahydrocannabinol, reference compound] | up to 1.95 fold |  |  |
